# Assay results: publication PMC10204415 (2023)
# No constants are given. Whether binding was seen depends on the method and setting. For some assays here: In cells and extracts the contact can be indirect. Some binding calls cover weakened binding; strength is not graded here. Where a sequence is shown, tags or fusion partners need not be part of it.
# T1: MBP-ARHGEF11 (mouse ARHGEF11 residues 1334–1406, except for deleted residues 1352–1394 by alternative splicing) (mouse) (UniProt Q68FM7)
# T1 sequence: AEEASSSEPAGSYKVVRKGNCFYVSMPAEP
# Key:
# [1] = molecular target: T1, MBP-ARHGEF11 (mouse ARHGEF11 residues 1334–1406, except for deleted residues 1352–1394 by alternative splicing) (mouse); test: pull-down; MBP-ARHGEF11 captured from crude E. coli extract on a GSA (gelatinized starch–agarose)-coated 96-well plate and washed; 3% BSA blocking at 4 °C for 1 h; GST-ZO1-ZU5 overlaid at 4 °C for 30 min; GSA buffer (150 mM NaCl, 50 mM Tris-HCl pH 7.4); co-eluted with 10 mM maltose; SDS-PAGE with Coomassie staining; only the target purified
# [2] = molecular target: T1, MBP-ARHGEF11 (mouse ARHGEF11 residues 1334–1406, except for deleted residues 1352–1394 by alternative splicing) (mouse); test: NMR titration; named only in one sentence; no data, constructs or conditions given
binder,measurement,setting,value
"GST-ZO1-ZU5 (mouse ZO-1 ZU5 domain, residues 1624–1745) (domain or fragment) EDGHTVVATARGIFNSNGGVLSSIETGVSIIIPQGAIPEGIEQEIYFKVCRDNSILPPLDKEKGETLLSPLVMCGPHGLKFLKPVELRLPHCDPKTWQNKCLPGDPNYLVGANCVSVLIDHF",binding,[1],binds
same,binding,[2],binds
